Experimental data as given in paper PMC5865676.
Results are given in words; binding and its absence hold for the method and conditions named. In cells and extracts the contact can be indirect. These calls come from enrichment with a bait or labelling near it, and not all partners need be listed. A no says only that the protein was not detected with the bait. Blank lines part the entries; values can stand above or below the binder they belong to.

Biological target: T1, Transforming growth factor-β (TGFβ)-activated kinase 1 (TAK1), endogenous (human (endogenous in AGS)), O43318
T1 chain: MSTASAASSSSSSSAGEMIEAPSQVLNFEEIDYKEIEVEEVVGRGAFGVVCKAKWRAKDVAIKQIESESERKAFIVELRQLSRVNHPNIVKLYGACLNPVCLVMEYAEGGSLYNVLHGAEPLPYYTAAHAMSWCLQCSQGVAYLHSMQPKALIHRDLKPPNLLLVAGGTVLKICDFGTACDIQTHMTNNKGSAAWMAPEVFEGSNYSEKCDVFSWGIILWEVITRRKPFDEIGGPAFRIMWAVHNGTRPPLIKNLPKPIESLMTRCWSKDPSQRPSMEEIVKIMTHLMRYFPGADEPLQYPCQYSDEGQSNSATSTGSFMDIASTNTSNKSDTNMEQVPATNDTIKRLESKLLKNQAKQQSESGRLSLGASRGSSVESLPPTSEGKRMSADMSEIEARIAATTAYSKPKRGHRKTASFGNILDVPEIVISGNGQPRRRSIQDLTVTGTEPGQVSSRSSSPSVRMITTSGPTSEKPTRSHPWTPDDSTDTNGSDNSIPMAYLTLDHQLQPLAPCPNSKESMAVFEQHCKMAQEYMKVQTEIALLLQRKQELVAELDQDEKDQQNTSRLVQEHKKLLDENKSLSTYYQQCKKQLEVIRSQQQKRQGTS
Assay: affinity purification with mass spectrometry; endogenous TAK1 immunoprecipitated from mock- or TAB1-transfected uninfected AGS cells, on-bead trypsin digestion, LC-MS/MS; isotype antibody IP as filter; proteins found in at least 2 experiments
Details: remark: other sources report otherwise

binding: no binding
B1: IκB kinase IKKβ, O14920 1-756 (enzyme)
chain: MSWSPSLTTQTCGAWEMKERLGTGGFGNVIRWHNQETGEQIAIKQCRQELSPRNRERWCLEIQIMRRLTHPNVVAARDVPEGMQNLAPNDLPLLAMEYCQGGDLRKYLNQFENCCGLREGAILTLLSDIASALRYLHENRIIHRDLKPENIVLQQGEQRLIHKIIDLGYAKELDQGSLCTSFVGTLQYLAPELLEQQKYTVTVDYWSFGTLAFECITGFRPFLPNWQPVQWHSKVRQKSEVDIVVSEDLNGTVKFSSSLPYPNNLNSVLAERLEKWLQLMLMWHPRQRGTDPTYGPNGCFKALDDILNLKLVHILNMVTGTIHTYPVTEDESLQSLKARIQQDTGIPEEDQELLQEAGLALIPDKPATQCISDGKLNEGHTLDMDLVFLFDNSKITYETQISPRPQPESVSCILQEPKRNLAFFQLRKVWGQVWHSIQTLKEDCNRLQQGQRAAMMNLLRNNSCLSKMKNSMASMSQQLKAKLDFFKTSIQIDLEKYSEQTEFGITSDKLLLAWREMEQAVELCGRENEVKLLVERMMALQTDIVDLQRSPMGRKQGGTLDDLEEQARELYRRLREKPRDQRTEGDSQEMVRLLLQAIQSFEKKVRVIYTQLSKTVVCKQKALELLPKVEEVVSLMNEDEKTVVRLQEKRQKELWNLLKIACSKVRGPVSGSPDSMNASRLSQPGQLMSQPSTASNSLPEPAKKSEELVAEAHNLCTLLENAIQDTVREQDQSFTALDWSWLQTEEEEHSCLEQAS

binding: no binding
B2: IκB kinase IKKα, O15111 1-745 (enzyme)
chain: MERPPGLRPGAGGPWEMRERLGTGGFGNVCLYQHRELDLKIAIKSCRLELSTKNRERWCHEIQIMKKLNHANVVKACDVPEELNILIHDVPLLAMEYCSGGDLRKLLNKPENCCGLKESQILSLLSDIGSGIRYLHENKIIHRDLKPENIVLQDVGGKIIHKIIDLGYAKDVDQGSLCTSFVGTLQYLAPELFENKPYTATVDYWSFGTMVFECIAGYRPFLHHLQPFTWHEKIKKKDPKCIFACEEMSGEVRFSSHLPQPNSLCSLVVEPMENWLQLMLNWDPQQRGGPVDLTLKQPRCFVLMDHILNLKIVHILNMTSAKIISFLLPPDESLHSLQSRIERETGINTGSQELLSETGISLDPRKPASQCVLDGVRGCDSYMVYLFDKSKTVYEGPFASRSLSDCVNYIVQDSKIQLPIIQLRKVWAEAVHYVSGLKEDYSRLFQGQRAAMLSLLRYNANLTKMKNTLISASQQLKAKLEFFHKSIQLDLERYSEQMTYGISSEKMLKAWKEMEEKAIHYAEVGVIGYLEDQIMSLHAEIMELQKSPYGRRQGDLMESLEQRAIDLYKQLKHRPSDHSYSDSTEMVKIIVHTVQSQDRVLKELFGHLSKLLGCKQKIIDLLPKVEVALSNIKEADNTVMFMQGKRQKEIWHLLKIACTQSSARSLVGSSLEGAVTPQTSAWLPPTSAEHDHSLSCVVTPQDGETSAQMIEENLNCLGHLSTIIHEANEEQGNSMMNLDWSWLTE
